# Data: PMC12390936
# By UniProt entry, the sequences of proteins in these tests, tags left out. Where a name states a change or a piece, a line headed by the entry shows the natural chain unless it says otherwise. Residues count along the entry.
# UniProt P09234, residues 135-159: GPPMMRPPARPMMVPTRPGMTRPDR
# UniProt Q8TEQ6: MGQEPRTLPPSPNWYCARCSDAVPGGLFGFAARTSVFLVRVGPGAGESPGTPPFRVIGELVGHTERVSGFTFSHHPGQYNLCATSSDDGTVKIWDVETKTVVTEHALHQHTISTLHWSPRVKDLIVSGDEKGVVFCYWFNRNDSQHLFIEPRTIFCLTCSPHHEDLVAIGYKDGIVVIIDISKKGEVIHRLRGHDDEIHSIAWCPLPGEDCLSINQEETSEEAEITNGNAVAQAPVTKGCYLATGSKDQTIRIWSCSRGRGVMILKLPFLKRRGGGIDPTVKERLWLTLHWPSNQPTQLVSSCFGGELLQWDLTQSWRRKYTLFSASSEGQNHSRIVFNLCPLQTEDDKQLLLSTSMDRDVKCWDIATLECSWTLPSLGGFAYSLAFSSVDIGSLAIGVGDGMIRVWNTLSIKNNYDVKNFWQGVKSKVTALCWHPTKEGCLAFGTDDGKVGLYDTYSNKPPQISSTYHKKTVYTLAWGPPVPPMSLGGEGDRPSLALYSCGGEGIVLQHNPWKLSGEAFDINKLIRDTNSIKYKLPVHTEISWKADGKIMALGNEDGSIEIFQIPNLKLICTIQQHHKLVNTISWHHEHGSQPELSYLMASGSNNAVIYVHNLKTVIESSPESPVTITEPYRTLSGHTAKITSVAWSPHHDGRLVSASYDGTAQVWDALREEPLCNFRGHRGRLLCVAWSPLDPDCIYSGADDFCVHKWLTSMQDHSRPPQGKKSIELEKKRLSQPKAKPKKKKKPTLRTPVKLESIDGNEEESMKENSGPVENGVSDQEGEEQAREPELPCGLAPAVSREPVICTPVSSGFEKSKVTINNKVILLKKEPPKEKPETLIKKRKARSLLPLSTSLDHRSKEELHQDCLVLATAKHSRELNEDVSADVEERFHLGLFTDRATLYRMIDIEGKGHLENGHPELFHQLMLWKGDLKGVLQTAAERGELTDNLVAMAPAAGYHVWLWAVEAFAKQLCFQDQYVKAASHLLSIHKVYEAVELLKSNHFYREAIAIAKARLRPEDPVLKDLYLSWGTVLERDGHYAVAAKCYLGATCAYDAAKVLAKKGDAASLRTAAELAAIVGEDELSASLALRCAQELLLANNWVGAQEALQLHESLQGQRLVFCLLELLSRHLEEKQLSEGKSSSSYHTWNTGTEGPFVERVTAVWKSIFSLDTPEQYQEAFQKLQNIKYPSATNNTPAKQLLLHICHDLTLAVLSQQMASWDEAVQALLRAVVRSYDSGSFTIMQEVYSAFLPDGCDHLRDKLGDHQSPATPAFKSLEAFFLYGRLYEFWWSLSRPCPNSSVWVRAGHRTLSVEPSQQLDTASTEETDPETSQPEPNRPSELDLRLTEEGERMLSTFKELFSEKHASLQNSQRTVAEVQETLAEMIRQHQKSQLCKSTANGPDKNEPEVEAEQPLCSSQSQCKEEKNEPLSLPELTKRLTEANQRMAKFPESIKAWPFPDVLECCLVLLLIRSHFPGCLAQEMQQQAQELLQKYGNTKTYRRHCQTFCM
# UniProt Q16637: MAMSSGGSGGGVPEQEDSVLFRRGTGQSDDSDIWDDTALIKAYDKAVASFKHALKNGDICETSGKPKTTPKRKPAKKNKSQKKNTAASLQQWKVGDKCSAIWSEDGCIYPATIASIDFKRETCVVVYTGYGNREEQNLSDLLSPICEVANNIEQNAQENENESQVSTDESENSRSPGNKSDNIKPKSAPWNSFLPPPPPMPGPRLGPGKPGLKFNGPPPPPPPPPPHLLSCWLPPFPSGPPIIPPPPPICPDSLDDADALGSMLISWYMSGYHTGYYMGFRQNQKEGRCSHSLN
# UniProt P08621: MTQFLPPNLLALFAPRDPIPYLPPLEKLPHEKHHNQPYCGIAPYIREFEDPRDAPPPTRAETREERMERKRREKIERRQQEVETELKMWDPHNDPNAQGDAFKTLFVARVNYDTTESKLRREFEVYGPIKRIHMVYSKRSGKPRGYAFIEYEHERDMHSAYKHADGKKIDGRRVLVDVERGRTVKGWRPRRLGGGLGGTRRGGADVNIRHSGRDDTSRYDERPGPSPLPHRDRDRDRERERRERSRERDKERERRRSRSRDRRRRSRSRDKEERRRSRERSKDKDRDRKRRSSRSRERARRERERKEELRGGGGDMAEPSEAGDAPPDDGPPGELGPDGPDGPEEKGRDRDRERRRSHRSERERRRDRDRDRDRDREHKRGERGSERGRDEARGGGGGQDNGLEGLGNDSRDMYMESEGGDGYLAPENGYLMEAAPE
# UniProt P09012: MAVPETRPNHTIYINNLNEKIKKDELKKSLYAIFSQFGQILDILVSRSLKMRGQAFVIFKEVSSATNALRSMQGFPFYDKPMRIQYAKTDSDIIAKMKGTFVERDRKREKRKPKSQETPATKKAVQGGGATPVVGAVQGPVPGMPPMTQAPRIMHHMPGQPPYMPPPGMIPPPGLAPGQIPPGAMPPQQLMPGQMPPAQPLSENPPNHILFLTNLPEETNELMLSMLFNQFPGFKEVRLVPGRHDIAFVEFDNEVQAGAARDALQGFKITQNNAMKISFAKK
# These are yes or no findings as the source states them, for the method shown. In cells and extracts the contact can be indirect. Some binding calls cover weakened binding; strength is not graded here.
# Tests used:
# [1] = biological target: U1C C-terminus domain peptide (aa 135-159) without di-methylarginine (human) (UniProt P09234); test: pull-down; biotinylated U1C peptide (0.5 nmol) on Dynabeads MyOne Streptavidin C1 in RSB-200 with 0.02% Triton X-100; HeLa cytoplasmic extract (2 mg/ml), 1 h at 4 °C; five washes in the same buffer; Western blot; only the target purified
# [2] = biological target: Gemin5 (human (endogenous in HeLa)) (UniProt Q8TEQ6); test: co-IP; anti-SMN or anti-Gemin5 antibody on Dynabeads Protein G; cytoplasmic HeLa extract (2 mg/ml) in RSB-100 with 0.1% NP-40, 1 h at 4 °C; washes in RSB-200 with 0.02% NP-40; Western blot
# [3] = biological target: SMN (human (endogenous in HeLa)) (UniProt Q16637); test: as above
# [4] = biological target: U1-70K (human (endogenous in HeLa)) (UniProt P08621); test: co-IP; cytoplasmic HeLa extract treated with RNase A/T1 (0.02 mg/ml RNase A, 50 U/ml RNase T1) on ice for 30 min before immunoprecipitation; Western blot
# [5] = biological target: U1-70K (human (endogenous in HeLa)) (UniProt P08621); test: co-IP; anti-U1-70K, anti-U1C or anti-U1A antibody on Dynabeads Protein G; cytoplasmic HeLa extract (2 mg/ml) in RSB-100 with 0.1% NP-40, 1 h at 4 °C; washes in RSB-200 with 0.02% NP-40; Western blot
# [6] = biological target: U1A (human (endogenous in HeLa)) (UniProt P09012); test: as above
Substance,binding [1],binding [2],binding [3],binding [4],binding [5],binding [6]
U1A (from UniProt P09012 1-282),no binding,binds,binds,,,
U1-70K (from UniProt P08621 1-437),no binding,binds,binds,,,
Gemin5 (from UniProt Q8TEQ6 1-1508),,,,binds,,
SMN (from UniProt Q16637 1-294),,,,binds,binds,binds
